Test results as given in paper PMC5731909.
No constants are given. Whether binding was seen depends on the method and setting. Binding seen in cells or lysates may run through a third protein. Some entries that bind do so weakly or less than the wild type.

Amino acid sequences for entries named in this document (tags omitted). Residues count along the entry.
UniProt Q8BTG7: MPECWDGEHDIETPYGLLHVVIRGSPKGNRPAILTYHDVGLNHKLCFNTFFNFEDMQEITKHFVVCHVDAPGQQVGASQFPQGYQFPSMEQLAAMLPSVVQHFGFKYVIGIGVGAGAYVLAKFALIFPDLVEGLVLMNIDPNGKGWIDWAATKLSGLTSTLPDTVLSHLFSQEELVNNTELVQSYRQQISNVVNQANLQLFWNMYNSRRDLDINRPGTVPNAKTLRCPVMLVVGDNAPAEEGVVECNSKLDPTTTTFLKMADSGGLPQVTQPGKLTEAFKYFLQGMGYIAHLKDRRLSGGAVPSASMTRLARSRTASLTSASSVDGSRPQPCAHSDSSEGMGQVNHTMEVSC
UniProt Q3UUI3, residues 28-230: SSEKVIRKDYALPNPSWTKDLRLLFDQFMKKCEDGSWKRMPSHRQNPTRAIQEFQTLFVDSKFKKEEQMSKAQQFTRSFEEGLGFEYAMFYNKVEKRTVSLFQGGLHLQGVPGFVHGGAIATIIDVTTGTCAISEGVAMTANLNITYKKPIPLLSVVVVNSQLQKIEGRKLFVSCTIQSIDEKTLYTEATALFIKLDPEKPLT

Key:
[1] = biological target: N-Myc downstream-regulated gene 4 (NDRG4) (mouse (endogenous in C2C12)) (UniProt Q8BTG7); assay: co-IP; lysate of C2C12 cells differentiated for 3 days; immunoprecipitated with anti-NDRG4 antibody or control IgG overnight at 4°C, Protein A + G agarose beads, five washes with lysis buffer; blotted with PTEN and CTMP antibodies
[2] = biological target: carboxyl-terminal modulator protein (CTMP) (mouse (endogenous in C2C12)) (UniProt Q3UUI3); assay: co-IP; lysates of NDRG4-knockdown (siNDRG4) and control C2C12 cells; immunoprecipitated with anti-CTMP antibody or control IgG; blotted with anti-pAkt, anti-NDRG4 and anti-CTMP antibodies

binding [1]	binding [2]	Substance
binds		carboxyl-terminal modulator protein (CTMP) (from UniProt Q3UUI3 28-230)
	binds	N-Myc downstream-regulated gene 4 (NDRG4) (from UniProt Q8BTG7 1-352)
